{
  "source": "PubChem BioAssay AID180",
  "about": "(DTP/NCI, 2004)",
  "system": "BDF1 mice, Adenocarcinoma 755 s.c., tumor weight T/C",
  "assay": "NCI In Vivo Anticancer Drug Screen. Data for tumor model Adenocarcinoma 755 (subcutaneous) in B6D2F1 (BDF1) mice",
  "conditions": "T/C endpoint: mean tumor weight, higher T/C = larger tumour; for T/C: evaluated on day 12",
  "procedure,_shortened": "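Values express treated (T) relative to vehicle-dosed control (C) animals, based on survival or tumour size measured after compound treatment of mice bearing a transplanted tumour.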",
  "key": {"[1]": {"conditions": "dose: 25.0 mg/kg/injection, schedule: Q01DX011 (ip), vehicle: carboxymethylcellulose (CMC)"}, "[2]": {"conditions": "dose: 50.0 mg/kg/injection, schedule: Q01DX011 (ip), vehicle: carboxymethylcellulose (CMC)"}, "[3]": {"conditions": "dose: 100.0 mg/kg/injection, schedule: Q01DX011 (ip), vehicle: carboxymethylcellulose (CMC)"}, "[4]": {"conditions": "dose: 200.0 mg/kg/injection, schedule: Q01DX011 (ip), vehicle: carboxymethylcellulose (CMC)"}, "[5]": {"conditions": "dose: 125.0 mg/kg/injection, schedule: Q01DX011 (ip), vehicle: methylcellulose (MC)"}, "[6]": {"conditions": "dose: 500.0 mg/kg/injection, schedule: Q01DX011 (sc), vehicle: steroid suspending solution"}, "[7]": {"conditions": "dose: 250.0 mg/kg/injection, schedule: Q01DX011 (ip), vehicle: methylcellulose (MC)"}},
  "note": "The list does not hold the whole screen: it is rich in T/C values a quarter to a half above the control, in often repeated tests (any T/C) and in doses without a T/C. Further doses and runs are listed elsewhere. T/C gives the treated animals as a percentage of the vehicle group. Schedules are NCI's codes, read here as Q, the interval in days (D) or hours (H), X, the number of doses. Some T/C values carry the count of animals alive at the toxicity check (mostly the fifth day); where none is given, no animal had died by that day. Some entries hold several experiments; the results are listed from low to high. Some doses have a count of surviving animals in place of a T/C: the source files T/C as zero there, which appears to mark a toxic dose or a test without result, not a measured value. Survivors were counted at the toxicity check, usually on the fifth day, unless a day is given; later deaths do not show.",
  "data": [
    {"compound": "COCCCNS(=O)(=O)c1ncnc2nc[nH]c12", "values": [
      {"measurement": "T/C", "setting": "dose: 1.0 mg/kg/injection, schedule: Q01DX011 (ip), vehicle: saline", "result": "140 % of control"},
      {"measurement": "T/C", "setting": "dose: 6.0 mg/kg/injection, schedule: Q01DX011 (ip), vehicle: saline", "result": "125 % of control"},
      {"measurement": "survivor count", "setting": "dose: 10.0 mg/kg/injection, schedule: Q01DX011 (ip), vehicle: carboxymethylcellulose (CMC)", "result": "6 of 10"},
      {"measurement": "T/C", "setting": "[1]", "result": "5, 14 [9 of 10 alive], 21 % of control"},
      {"measurement": "survivor count", "setting": "[1]", "result": "5 of 10"},
      {"measurement": "survivor count", "setting": "[2]", "result": "3 of 10"},
      {"measurement": "survivor count", "setting": "[3]", "result": "4 of 10"},
      {"measurement": "survivor count", "setting": "dose: 150.0 mg/kg/injection, schedule: Q01DX011 (ip), vehicle: carboxymethylcellulose (CMC)", "result": "0 of 10"}
    ]},
    {"compound": "CCCCCCCCCCCC[N+](C)(C)c1ncnc2nc[nH]c12", "values": [
      {"measurement": "T/C", "setting": "dose: 6.0 mg/kg/injection, schedule: Q01DX011 (ip), vehicle: carboxymethylcellulose (CMC)", "result": "129 % of control"}
    ]},
    {"compound": "O=C([O][Hg][CH2]C1CC(O)CC([CH2][Hg][O]C(=O)c2ccccc2)O1)c1ccccc1", "note": "(stereo not drawn)", "values": [
      {"measurement": "survivor count", "setting": "[3]", "result": "2 of 10"},
      {"measurement": "survivor count", "setting": "[4]", "result": "0 of 10"}
    ]},
    {"compound": "CSc1ncc(Br)c(=O)[nH]1", "values": [
      {"measurement": "survivor count", "setting": "dose: 62.0 mg/kg/injection, schedule: Q01DX011 (ip), vehicle: methylcellulose (MC)", "result": "5 of 10"},
      {"measurement": "survivor count", "setting": "[5]", "result": "2 of 10"}
    ]},
    {"compound": "O=S(=O)(O)C(Nc1ccccc1)c1ccccc1", "note": "(stereo not drawn)", "values": [
      {"measurement": "T/C", "setting": "[3]", "result": "125 % of control"}
    ]},
    {"compound": "CCC(=O)O[C@H]1CC[C@H]2[C@@H]3CCC4=CC(=O)CC[C@]4(C)[C@H]3CC[C@]12C", "values": [
      {"measurement": "survivor count", "setting": "dose: 400.0 mg/kg/injection, schedule: Q01DX011 (sc), vehicle: steroid suspending solution", "result": "1 of 10"},
      {"measurement": "T/C", "setting": "[6]", "result": "55, 71 [9 of 10 alive], 134 % of control"},
      {"measurement": "survivor count", "setting": "[6]", "result": "1 of 10"},
      {"measurement": "survivor count", "setting": "dose: 666.66 mg/kg/injection, schedule: Q01DX011 (sc), vehicle: steroid suspending solution", "result": "2 of 10"}
    ]},
    {"compound": "CCCCNS(=O)(=O)c1ncnc2nc[nH]c12", "values": [
      {"measurement": "survivor count", "setting": "[4]", "result": "0 of 10"},
      {"measurement": "survivor count", "setting": "dose: 400.0 mg/kg/injection, schedule: Q01DX011 (ip), vehicle: carboxymethylcellulose (CMC)", "result": "0 of 10"}
    ]},
    {"compound": "CC(=O)NC1=C(N2CC2)C(=O)C(NC(C)=O)=C(N2CC2)C1=O", "values": [
      {"measurement": "T/C", "setting": "dose: 0.01 mg/kg/injection, schedule: Q01DX011 (ip), vehicle: methylcellulose (MC)", "result": "128 % of control"}
    ]},
    {"compound": "CCc1c(Cl)nc(N)nc1Nc1ccccc1Cl", "values": [
      {"measurement": "T/C", "setting": "dose: 31.0 mg/kg/injection, schedule: Q01DX011 (ip), vehicle: methylcellulose (MC)", "result": "130 % of control [9 of 10 alive]"},
      {"measurement": "survivor count", "setting": "[7]", "result": "5 of 10"}
    ]},
    {"compound": "CCC(=O)O[C@H]1CC[C@H]2[C@@H]3CCC4=CC(=O)CC[C@]4(C)[C@H]3[C@@H](O)C[C@]12C", "values": [
      {"measurement": "T/C", "setting": "dose: 450.0 mg/kg/injection, schedule: Q01DX011 (sc), vehicle: steroid suspending solution", "result": "137 % of control"}
    ]},
    {"compound": "C=C(C)[C@H]1Cc2c(ccc3c2O[C@@H]2COc4cc(OC)c(OC)cc4[C@@H]2C3=O)O1", "values": [
      {"measurement": "survivor count", "setting": "dose: 3.0 mg/kg/injection, schedule: Q01DX011 (ip), vehicle: other", "result": "2 of 10"}
    ]},
    {"compound": "O=P(N1CCCC1)(N1CC1)N1CC1", "values": [
      {"measurement": "T/C", "setting": "dose: 0.5 mg/kg/injection, schedule: Q01DX011 (ip), vehicle: carboxymethylcellulose (CMC)", "result": "132 % of control [8 of 10 alive]"}
    ]},
    {"compound": "CC(=O)c1cc(C)[nH]c1C", "values": [
      {"measurement": "survivor count", "setting": "dose: 230.0 mg/kg/injection, schedule: Q01DX011 (ip), vehicle: carboxymethylcellulose (CMC)", "result": "6 of 10"},
      {"measurement": "survivor count", "setting": "dose: 230.0 mg/kg/injection, schedule: Q01DX011 (ip), vehicle: methylcellulose (MC)", "result": "1 of 10 and 6 of 10"}
    ]},
    {"compound": "Cc1cnc(SCc2ccccc2Cl)nc1SCc1ccccc1Cl", "values": [
      {"measurement": "survivor count", "setting": "dose: 15.0 mg/kg/injection, schedule: Q01DX011 (ip), vehicle: methylcellulose (MC)", "result": "6 of 10"},
      {"measurement": "survivor count", "setting": "[5]", "result": "5 of 10"},
      {"measurement": "survivor count", "setting": "[7]", "result": "5 of 10"}
    ]},
    {"compound": "Nc1nc(=S)c2ncn(C3OC(COC(=O)c4ccc([N+](=O)[O-])cc4)C(OC(=O)c4ccc([N+](=O)[O-])cc4)C3OC(=O)c3ccc([N+](=O)[O-])cc3)c2[nH]1", "note": "(stereo not drawn)", "values": [
      {"measurement": "survivor count", "setting": "[1]", "result": "0 of 10"},
      {"measurement": "survivor count", "setting": "[2]", "result": "0 of 10"}
    ]}
  ]
}
